Test results as given in publication doi:10.1101/2025.09.23.678001.
No constants are given. Whether binding was seen depends on the method and setting. In cells and extracts the contact can be indirect. A yes stands for co-enrichment or nearness to the bait. Other partners may have been found. Blank lines part the entries; values can stand above or below the molecule they belong to.

By UniProt entry, the sequences of proteins in these tests, tags left out. Where a name states a change or a piece, a line headed by the entry shows the natural chain unless it says otherwise.
UniProt Q8IIP2: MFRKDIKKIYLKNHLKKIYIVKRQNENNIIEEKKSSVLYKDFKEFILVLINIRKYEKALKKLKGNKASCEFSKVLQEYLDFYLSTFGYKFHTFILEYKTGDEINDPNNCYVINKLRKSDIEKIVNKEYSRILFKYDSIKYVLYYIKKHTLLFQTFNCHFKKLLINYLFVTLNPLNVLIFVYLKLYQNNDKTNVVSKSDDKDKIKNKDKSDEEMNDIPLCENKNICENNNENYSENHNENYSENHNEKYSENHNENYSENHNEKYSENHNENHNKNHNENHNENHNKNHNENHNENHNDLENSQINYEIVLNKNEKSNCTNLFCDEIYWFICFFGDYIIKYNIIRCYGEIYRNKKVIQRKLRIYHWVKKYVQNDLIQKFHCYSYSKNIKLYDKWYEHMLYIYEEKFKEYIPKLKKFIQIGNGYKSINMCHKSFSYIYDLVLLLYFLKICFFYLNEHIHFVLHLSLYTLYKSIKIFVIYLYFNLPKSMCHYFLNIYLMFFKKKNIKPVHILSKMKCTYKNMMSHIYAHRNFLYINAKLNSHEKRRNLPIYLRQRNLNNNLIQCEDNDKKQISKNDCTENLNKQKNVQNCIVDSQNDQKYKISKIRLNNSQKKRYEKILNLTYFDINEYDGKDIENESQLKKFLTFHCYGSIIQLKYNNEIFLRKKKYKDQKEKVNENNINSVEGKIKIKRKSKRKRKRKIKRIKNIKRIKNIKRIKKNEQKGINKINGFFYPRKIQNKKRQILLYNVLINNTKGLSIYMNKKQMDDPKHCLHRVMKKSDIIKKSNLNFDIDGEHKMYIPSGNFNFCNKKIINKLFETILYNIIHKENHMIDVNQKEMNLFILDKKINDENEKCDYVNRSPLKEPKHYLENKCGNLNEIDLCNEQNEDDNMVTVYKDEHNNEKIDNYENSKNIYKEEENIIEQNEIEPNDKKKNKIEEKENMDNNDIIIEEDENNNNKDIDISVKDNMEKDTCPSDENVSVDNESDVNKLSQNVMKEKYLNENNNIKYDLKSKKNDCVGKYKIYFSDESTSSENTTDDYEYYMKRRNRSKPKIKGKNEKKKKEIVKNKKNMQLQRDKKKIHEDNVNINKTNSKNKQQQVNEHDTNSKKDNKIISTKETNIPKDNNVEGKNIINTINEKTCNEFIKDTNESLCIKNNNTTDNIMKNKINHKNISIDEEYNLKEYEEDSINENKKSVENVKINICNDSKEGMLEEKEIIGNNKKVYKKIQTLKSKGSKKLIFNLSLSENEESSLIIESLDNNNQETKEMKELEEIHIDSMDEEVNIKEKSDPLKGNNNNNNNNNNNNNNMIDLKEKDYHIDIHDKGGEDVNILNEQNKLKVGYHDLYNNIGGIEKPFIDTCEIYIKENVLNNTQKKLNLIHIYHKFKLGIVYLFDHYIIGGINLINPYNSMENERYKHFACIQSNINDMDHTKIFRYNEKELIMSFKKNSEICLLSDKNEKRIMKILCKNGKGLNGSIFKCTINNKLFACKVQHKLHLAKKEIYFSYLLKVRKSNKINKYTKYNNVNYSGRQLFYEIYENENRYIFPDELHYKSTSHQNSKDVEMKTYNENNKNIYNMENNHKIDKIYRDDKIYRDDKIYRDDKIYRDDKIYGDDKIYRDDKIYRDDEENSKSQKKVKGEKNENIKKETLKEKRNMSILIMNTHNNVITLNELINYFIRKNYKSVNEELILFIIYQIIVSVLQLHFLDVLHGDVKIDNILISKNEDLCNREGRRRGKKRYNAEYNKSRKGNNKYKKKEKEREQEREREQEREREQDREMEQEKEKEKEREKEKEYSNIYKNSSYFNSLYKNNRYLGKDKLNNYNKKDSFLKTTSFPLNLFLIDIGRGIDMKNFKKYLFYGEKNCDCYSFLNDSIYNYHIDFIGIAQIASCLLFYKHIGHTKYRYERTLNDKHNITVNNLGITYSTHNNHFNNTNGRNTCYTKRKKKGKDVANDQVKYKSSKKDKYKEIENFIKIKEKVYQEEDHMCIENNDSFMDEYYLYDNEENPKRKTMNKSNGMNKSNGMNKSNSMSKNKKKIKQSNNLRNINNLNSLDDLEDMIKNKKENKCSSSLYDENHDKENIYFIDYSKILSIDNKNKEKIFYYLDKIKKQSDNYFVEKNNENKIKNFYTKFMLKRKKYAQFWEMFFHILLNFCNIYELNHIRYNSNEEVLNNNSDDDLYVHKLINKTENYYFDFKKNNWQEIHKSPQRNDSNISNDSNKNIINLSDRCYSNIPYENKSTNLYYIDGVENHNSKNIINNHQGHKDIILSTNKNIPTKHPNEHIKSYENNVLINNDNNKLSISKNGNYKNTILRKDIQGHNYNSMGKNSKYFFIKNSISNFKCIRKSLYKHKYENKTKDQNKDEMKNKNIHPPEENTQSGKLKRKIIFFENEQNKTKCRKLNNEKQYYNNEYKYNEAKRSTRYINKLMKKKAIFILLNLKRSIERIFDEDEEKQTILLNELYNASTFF

Experiments:
[1] = target: CENH3 fused to an N-terminal sandwich tag (2xFKBP-GFP-2xFKBP) (P. falciparum (endogenous in 3D7 parasites)) (UniProt Q8IDZ1); test: proximity labelling
[2] = target: SMC1 tagged at the C-terminus with GFP (P. falciparum (endogenous in NF54 parasites)) (UniProt Q8II57); test: proximity labelling
[3] = target: EUC6, C-terminally 2xFKBP-GFP-2xFKBP-tagged (P. falciparum (endogenous in 3D7 parasites)); test: affinity purification with mass spectrometry
[4] = target: EUC2, C-terminally 2xFKBP-GFP-2xFKBP-tagged (P. falciparum (endogenous in 3D7 parasites)); test: affinity purification with mass spectrometry
[5] = target: EUC4, C-terminally 2xFKBP-GFP-2xFKBP-tagged (P. falciparum (endogenous in 3D7 parasites)); test: affinity purification with mass spectrometry

- binding [1]: binds
- binding [2]: binds
Molecule: putative kinase (PF3D7_1112100) (from UniProt Q8IIP2)

- binding [3]: binds
- binding [4]: binds
B1: 14-3-3I (protein, UniProt C0H4V6 1-262)
chain: MATSEELKQLRCDCTYRSKLAEQAERYDEMADAMRTLVEQCVNNDKDELTVEERNLLSVAYKNAVGARRASWRIISSVEQKEMSKANVHNKNVAATYRKKVEEELNNICQDILNLLTKKLIPNTSESESKVFYYKMKGDYYRYISEFSCDEGKKEASNCAQEAYQKATDIAENELPSTHPIRLGLALNYSVFFYEILNQPHQACEMAKRAFDDAITEFDNVSEDSYKDSTLIMQLLRDNLTLWTSDLQGDQTEEKSKDEGLE

- binding [5]: binds
B2: PF3D7_0505600 (protein, UniProt Q8I446 1-333)
chain: MATILTMQFPSSDEEDEDYFVDEENDNDDEDDDDNNNNNNNNEHNNNEHNNDQHNNNVHNNDQHNNNHMKTIRKKRKGRCKDIKNSIKKSIIKEKIEKTYKDINLEYKQLYSHESNIRNGDFLLQFHKKDPQICKKYNSIDKLYNHLNKYCSIEQDNKNIKNNNQQQNDNHVNNDEDHYSQHYITMKEYKKKSRNDQYVNEIHNNHLVKSALDNFYDNNSIHVEKKYMYAGKIFTIKKKIDKTSASYKRYLKTQDKINIGGNFSNIDELIQNIQEQKQINTIDKSSEDWKQYKLINLVDDDKLKKNQHYLENKFFEENVERRVYENKIKKLHK
